Test results: publication PMC7819943, “Rice protein-binding microarrays: a tool to detect cis-acting elements near promoter regions in rice”
Some of the results follow.

Molecular target: T1, OsSMF1 (Oryza sativa, UniProt Q6ZLB0 1-436)
T1 sequence: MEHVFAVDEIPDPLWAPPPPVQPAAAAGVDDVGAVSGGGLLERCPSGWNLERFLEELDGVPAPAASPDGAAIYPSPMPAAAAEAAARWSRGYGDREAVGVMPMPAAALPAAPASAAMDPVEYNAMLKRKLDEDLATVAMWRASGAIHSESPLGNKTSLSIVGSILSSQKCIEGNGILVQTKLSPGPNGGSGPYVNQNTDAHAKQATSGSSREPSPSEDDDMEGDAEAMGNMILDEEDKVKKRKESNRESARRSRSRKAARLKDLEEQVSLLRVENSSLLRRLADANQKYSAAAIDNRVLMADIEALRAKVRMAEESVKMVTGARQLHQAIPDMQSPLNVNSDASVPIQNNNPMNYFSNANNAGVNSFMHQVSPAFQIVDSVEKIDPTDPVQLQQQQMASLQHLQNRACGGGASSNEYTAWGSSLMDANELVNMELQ
Assay: protein-binding microarray (RPBM); PBS, 2% BSA, 51.3 ng/ul salmon testes DNA, 50 uM zinc acetate, 200 nM TF, 25 C, 1 h; high values mean tight binding
Conditions: protein: recombinant; tags: N-terminal polyhistidine and DsRed monomer fusion (pET32a); chain copies: 2; label: CyDye5-dUTP incorporated in the synthesized complementary strand; 3' TTTTT single-stranded linker to array surface; dsDNA, one strand shown
Procedure, shortened: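 The binding signal is fluorescence intensity per feature, in arbitrary units, read on an Axon 4000B scanner. Polyhistidine- and DsRed-tagged transcription factors (N-terminal fusions) from E. coli BL21-CodonPlus were purified on Ni–NTA and applied at 200 nM for 1 h at 25 °C to a double-stranded, BSA-blocked custom Agilent array in buffer with 50 µM zinc acetate.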

Sequence	binding signal
GACTGATCTGCCTAGTCGCATGTACACGGCGGATGCCGTACGGAGTCACCTAGTGCAG	4020 fluorescence intensity (a.u.)
TAGTCCATGGGCCACACCGGCGACACCGTCACACCTAATTCGGAGTCACCTAGTGCAG	4150 fluorescence intensity (a.u.)
TCCACATATAAGTGGTGAGGTGTCACGAATTATGACAATCCGGAGTCACCTAGTGCAG	5010 fluorescence intensity (a.u.)
CGGAGGCGGCGGTGAGCGAACGGCGGGTGCCACGTGCCCACGGAGTCACCTAGTGCAG	10300 fluorescence intensity (a.u.)
TGCAGCCGCCGACGCGGCGCGCCGACGCGATCTGAAACCCCGGAGTCACCTAGTGCAG	3940 fluorescence intensity (a.u.)
GCTCGAGATCCGGTACGTCATTGCTCAGGGGACCTACGGCCGGAGTCACCTAGTGCAG	4350 fluorescence intensity (a.u.)
CAAACCAAGAAGCTGATGCACTGAAGAAGTCCAGACGGCCCGGAGTCACCTAGTGCAG	3230 fluorescence intensity (a.u.)
ATGGTCCCACCTGTCATACACACATTGCGTCTTGGAGTTCCGGAGTCACCTAGTGCAG	3560 fluorescence intensity (a.u.)
TCCTCCATCGCCGCCTTCACCGAGTCACCGCCCGTCATCCCGGAGTCACCTAGTGCAG	3380 fluorescence intensity (a.u.)
TATCTCAGCCACTGAATCAGTGACGTCCGACACAGTGACACGGAGTCACCTAGTGCAG	4140 fluorescence intensity (a.u.)
CGCGCCGACGACGGCCTCCACGTCACGCGCGACGTCCGGCCGGAGTCACCTAGTGCAG	8230 fluorescence intensity (a.u.)
GGGGTGTTTAGATTCAGTGGTGTAAAGTTTTAACGTGTCACGGAGTCACCTAGTGCAG	4560 fluorescence intensity (a.u.)
ATAAAACCACGTCACTAATCAGTTTGACATATTCACATATCGGAGTCACCTAGTGCAG	9580 fluorescence intensity (a.u.)
CTATTGTACCTGCTCTAATGTGCAATGCATCTCCATGAATCGGAGTCACCTAGTGCAG	4170 fluorescence intensity (a.u.)
TACTGGTGCAAATGAAGAGTCATCAAGATCCCATGCCATTCGGAGTCACCTAGTGCAG	3180 fluorescence intensity (a.u.)
TGCGGCTTGCTAAAACACGTGCCAATGACATGTGGAGCTACGGAGTCACCTAGTGCAG	3920 fluorescence intensity (a.u.)
GAACTCAACTCCTCTGATGACAACTTTAATCAGGCAGTGTCGGAGTCACCTAGTGCAG	4730 fluorescence intensity (a.u.)
CCATCTTAACAAACCGATGTGGCACATTGTGATTGAATCTCGGAGTCACCTAGTGCAG	4260 fluorescence intensity (a.u.)
TCCATCTCCCTCATCACGCCGACGCCGCAGCCTCTCCCCACGGAGTCACCTAGTGCAG	3900 fluorescence intensity (a.u.)
ACTGTCTCTCTCTCCTCCTCTCCTCTACTTAACACCAAAGCGGAGTCACCTAGTGCAG	4420 fluorescence intensity (a.u.)
AAATTTCGGACTGAAATTTCGAGGTATCGGTGACCTCCGACGGAGTCACCTAGTGCAG	22600 fluorescence intensity (a.u.)

Sequence	binding signal
CCGGCTGCGTGACTGTGTCTGCGTCGCGTCTCCTCCACTTCGGAGTCACCTAGTGCAG	3160 fluorescence intensity (a.u.)
TCCCGCGTGTTGTGCTGTGCTGTGCTGGTACTACTCCTTACGGAGTCACCTAGTGCAG	3680 fluorescence intensity (a.u.)
TTAGATTGGATCATGACGCCAATGTTATTGGTGCTATTAGCGGAGTCACCTAGTGCAG	7520 fluorescence intensity (a.u.)
ATTGTTGAATGACGCGGAAACGTTTCTTTGCATCATATGGCGGAGTCACCTAGTGCAG	5950 fluorescence intensity (a.u.)
GCCTCATGGCCTTTGCTCGGCCTCGCCCTGTCCCACACCGCGGAGTCACCTAGTGCAG	4110 fluorescence intensity (a.u.)
GGAGAAAAGCGGAGAAGCCACGTCAAGTCGTCTCCCGCCCCGGAGTCACCTAGTGCAG	15600 fluorescence intensity (a.u.)
GAGTATGAAGATTACTAGTGATGCTGAAATTTCTGACATACGGAGTCACCTAGTGCAG	3790 fluorescence intensity (a.u.)
ACTACCACTAGGATTGTACACACTGTCATGTCCTGTGCACCGGAGTCACCTAGTGCAG	4380 fluorescence intensity (a.u.)
CAAACTTTTGTATATTGTGATGCCAAGTTTTCTCTTGTCGCGGAGTCACCTAGTGCAG	18500 fluorescence intensity (a.u.)
AAATTTGGAGAGAGCCAATAATGAAACGGGAGATGACTCACGGAGTCACCTAGTGCAG	5180 fluorescence intensity (a.u.)
TACAAGCCACGTCGGTTATAAACCCCACCACCTCCCACTCCGGAGTCACCTAGTGCAG	10000 fluorescence intensity (a.u.)
ACGCCCCTGTGGAAAAGGAATGAAGCGAGCGCACAGCGCACGGAGTCACCTAGTGCAG	23100 fluorescence intensity (a.u.)
TAAAGCAATGCACTAATGTTGTTTTCCACGTCCATCCGGCCGGAGTCACCTAGTGCAG	3250 fluorescence intensity (a.u.)
TCGAGCAAGGCATCGTGACGTCACGCACGCTCTCCCGTAACGGAGTCACCTAGTGCAG	24100 fluorescence intensity (a.u.)
GTTCGTCGGCAAATGGCGGCGCCAGCCTACGTGTCCTCTCCGGAGTCACCTAGTGCAG	12200 fluorescence intensity (a.u.)
TCCCAAATCTTTCTTAATAAATATATAAAAGTTTTACGTACGGAGTCACCTAGTGCAG	3280 fluorescence intensity (a.u.)
GCAAACGCAGCAGAGTCACGTACGTCACCCGTGGCGCGGTCGGAGTCACCTAGTGCAG	7470 fluorescence intensity (a.u.)
TGCAGCGCAACATCAGCTCTGTCACACGTTGTGCTGGGGCCGGAGTCACCTAGTGCAG	4920 fluorescence intensity (a.u.)
GCTTGATCCAGATTCCAAGCTACAGTCTCATGGGCCCCTGCGGAGTCACCTAGTGCAG	20500 fluorescence intensity (a.u.)
TGGCCAGGTGTTTCATGGTAGTACAGCACGAGTCGACCTGCGGAGTCACCTAGTGCAG	3180 fluorescence intensity (a.u.)
AAGCATATCGCGAAGCCGTACAGCCTCTGCACCGAGATTCCGGAGTCACCTAGTGCAG	27900 fluorescence intensity (a.u.)

2 entries picked at random from the list so far:
Sequence	binding signal
TCGAGCAAGGCATCGTGACGTCACGCACGCTCTCCCGTAACGGAGTCACCTAGTGCAG	24100 fluorescence intensity (a.u.)
AAATTTGGAGAGAGCCAATAATGAAACGGGAGATGACTCACGGAGTCACCTAGTGCAG	5180 fluorescence intensity (a.u.)
